# Article PMC5539422
# Results are given in words; binding and its absence hold for the method and conditions named. In cells and extracts the contact can be indirect. A yes stands for co-enrichment or nearness to the bait. Other partners may have been found. Where a sequence is shown, tags or fusion partners need not be part of it.
# T1: L7Ae with a C-terminal Flag-hemagglutinin (Flag-HA) tag (Sulfolobus acidocaldarius) (UniProt Q4J8P1)
# T1 sequence: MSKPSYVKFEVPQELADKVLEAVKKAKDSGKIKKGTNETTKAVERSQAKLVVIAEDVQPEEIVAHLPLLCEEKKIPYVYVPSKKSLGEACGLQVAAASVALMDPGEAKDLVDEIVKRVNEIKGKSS
# Target: T1, L7Ae with a C-terminal Flag-hemagglutinin (Flag-HA) tag (Sulfolobus acidocaldarius)
# Test: affinity purification with mass spectrometry; two consecutive immunoprecipitations (Flag-IP, then HA-IP) of genomically Flag-HA-tagged L7Ae from S. acidocaldarius lysate; 100 mM MOPS pH 6.5, 300 mM NaCl, 10% glycerol; 4°C; eluted with 8 M urea; SDS-PAGE, co-isolated proteins identified via mass spectrometry; mock purification of the untagged strain as control
binder,measurement,value
"fibrillarin (protein, UniProt Q9P9M0 1-231) MSEIEKVTKTQFDNVYECIFNDGTTRLCTKNLSPGHNVYGERLIKYGGVEYREWNAFRSKLAGAIVKGLKYNPIVKGSKILYLGAASGTTPSHISDIVELQGKVYSVEFSPRVIRELLLVAQYRPNMFPILADARFPQYYKSLVENVDIVYVDIAQPNETEIAMYNARFFLKKNGYMMIAIKSRSIDVTKDPREIYNAEAKKLEDAGFDIREVLELDPYDKDHAMIVVKYK",binding,binds
